# In US20240262857A1, “NOVEL UNIVERSAL ANTI-RNA VIRUS AGENTS” (priority 2021, published 2024):
# At least one compound was matched to its structure with a doubt left.
# Molecular target: T1, ribonucleotide reductase (RNR) (Homo sapiens, UniProt P23921)
# T1 sequence (P23921 1-792): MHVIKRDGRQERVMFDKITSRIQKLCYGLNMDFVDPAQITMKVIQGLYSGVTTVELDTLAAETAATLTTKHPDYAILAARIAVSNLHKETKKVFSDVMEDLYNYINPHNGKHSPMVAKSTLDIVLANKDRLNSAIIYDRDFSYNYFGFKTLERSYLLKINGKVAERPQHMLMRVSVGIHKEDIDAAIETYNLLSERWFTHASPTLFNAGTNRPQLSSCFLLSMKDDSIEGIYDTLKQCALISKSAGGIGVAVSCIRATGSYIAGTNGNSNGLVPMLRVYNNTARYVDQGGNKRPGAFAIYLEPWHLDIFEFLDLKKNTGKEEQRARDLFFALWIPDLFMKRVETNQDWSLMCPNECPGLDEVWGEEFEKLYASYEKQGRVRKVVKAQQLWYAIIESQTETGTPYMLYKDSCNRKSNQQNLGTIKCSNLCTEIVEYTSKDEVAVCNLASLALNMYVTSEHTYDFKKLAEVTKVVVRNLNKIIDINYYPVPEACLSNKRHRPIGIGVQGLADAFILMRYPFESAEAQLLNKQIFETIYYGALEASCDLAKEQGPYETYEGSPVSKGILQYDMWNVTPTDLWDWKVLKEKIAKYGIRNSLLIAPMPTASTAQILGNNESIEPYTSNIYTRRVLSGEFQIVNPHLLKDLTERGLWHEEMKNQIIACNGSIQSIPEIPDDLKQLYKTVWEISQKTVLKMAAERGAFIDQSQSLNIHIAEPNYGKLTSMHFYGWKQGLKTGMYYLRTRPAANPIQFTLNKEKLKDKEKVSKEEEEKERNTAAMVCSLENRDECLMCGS
# T1 sequence (P31350 1-389 partner): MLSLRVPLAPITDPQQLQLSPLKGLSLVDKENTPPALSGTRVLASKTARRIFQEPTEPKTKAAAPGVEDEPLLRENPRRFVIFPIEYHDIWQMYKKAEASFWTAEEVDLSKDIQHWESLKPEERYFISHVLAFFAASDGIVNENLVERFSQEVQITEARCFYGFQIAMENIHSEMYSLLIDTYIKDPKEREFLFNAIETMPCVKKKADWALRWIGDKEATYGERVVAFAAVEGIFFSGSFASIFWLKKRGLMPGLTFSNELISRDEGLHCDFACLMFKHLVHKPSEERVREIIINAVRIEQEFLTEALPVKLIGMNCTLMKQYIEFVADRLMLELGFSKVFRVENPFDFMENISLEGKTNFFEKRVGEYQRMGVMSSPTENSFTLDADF
# Assay: RNR assay: reduction of diphosphate substrates to 2'-deoxy forms, LC-MS/MS
# Conditions: 37° C., 1 hr; by comparing peak areas
structure (smiles),measurement,value
"Nc1ccn([C@@H]2O[C@H](COP(=O)(O)OP(=O)(O)O)[C@@H](O)[C@H]2O)c(=O)n1 [CDP, rCytidine diphosphate]",ratio diphosphate : 2'-deoxy-diphosphate in the samples after RNR reaction,around 100:0.7
same,ratio triphosphate : 2'-deoxy-triphosphate in the samples after RNR reaction,around 100:0.1
